# The list shows a part of the results.
# Amino acid sequences for entries named in this document (tags omitted). A change or cut given only in a name is not applied to a line headed by its entry.
# UniProt Q16637, whole entry, looked up: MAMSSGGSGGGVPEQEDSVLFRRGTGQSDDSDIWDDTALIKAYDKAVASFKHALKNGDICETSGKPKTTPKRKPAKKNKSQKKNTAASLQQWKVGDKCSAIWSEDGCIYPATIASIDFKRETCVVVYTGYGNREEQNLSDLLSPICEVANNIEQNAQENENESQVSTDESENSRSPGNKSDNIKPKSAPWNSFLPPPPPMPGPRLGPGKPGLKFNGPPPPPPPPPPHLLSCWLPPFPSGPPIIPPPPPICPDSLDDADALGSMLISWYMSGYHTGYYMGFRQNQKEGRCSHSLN
# UniProt Q9NTJ3, whole entry, looked up: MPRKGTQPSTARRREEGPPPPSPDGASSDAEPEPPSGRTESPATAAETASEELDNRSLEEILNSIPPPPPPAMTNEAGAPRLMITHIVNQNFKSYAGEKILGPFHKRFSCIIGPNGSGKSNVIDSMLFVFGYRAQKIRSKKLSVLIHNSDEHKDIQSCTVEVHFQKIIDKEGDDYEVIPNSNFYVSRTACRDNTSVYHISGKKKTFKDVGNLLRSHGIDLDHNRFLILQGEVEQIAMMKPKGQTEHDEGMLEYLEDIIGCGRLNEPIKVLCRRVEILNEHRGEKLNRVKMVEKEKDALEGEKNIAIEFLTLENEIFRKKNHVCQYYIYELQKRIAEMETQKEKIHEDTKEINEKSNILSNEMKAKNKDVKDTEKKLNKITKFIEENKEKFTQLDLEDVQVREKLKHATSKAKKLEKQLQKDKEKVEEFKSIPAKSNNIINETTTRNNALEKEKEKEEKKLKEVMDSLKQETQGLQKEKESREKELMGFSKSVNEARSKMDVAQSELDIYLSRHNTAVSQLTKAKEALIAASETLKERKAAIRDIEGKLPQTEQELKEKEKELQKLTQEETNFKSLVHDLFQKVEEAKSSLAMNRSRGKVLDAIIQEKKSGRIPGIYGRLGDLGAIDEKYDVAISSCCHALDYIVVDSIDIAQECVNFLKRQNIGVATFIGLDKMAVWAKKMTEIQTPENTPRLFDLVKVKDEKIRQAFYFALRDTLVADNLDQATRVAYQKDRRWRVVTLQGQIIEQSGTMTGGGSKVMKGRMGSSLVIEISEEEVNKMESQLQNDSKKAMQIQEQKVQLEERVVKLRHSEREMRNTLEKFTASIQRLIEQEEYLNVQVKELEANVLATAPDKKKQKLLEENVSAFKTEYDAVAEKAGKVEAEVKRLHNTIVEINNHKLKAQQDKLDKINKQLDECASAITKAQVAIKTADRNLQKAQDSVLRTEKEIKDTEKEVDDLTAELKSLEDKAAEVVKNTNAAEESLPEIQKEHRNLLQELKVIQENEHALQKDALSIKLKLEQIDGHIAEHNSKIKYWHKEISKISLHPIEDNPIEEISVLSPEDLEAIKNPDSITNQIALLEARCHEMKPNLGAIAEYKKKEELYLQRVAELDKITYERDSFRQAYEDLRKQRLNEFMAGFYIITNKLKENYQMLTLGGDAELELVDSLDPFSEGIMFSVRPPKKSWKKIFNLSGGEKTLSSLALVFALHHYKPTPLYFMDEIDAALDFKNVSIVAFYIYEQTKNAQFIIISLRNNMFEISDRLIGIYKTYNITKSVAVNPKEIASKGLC
# UniProt O60264, whole entry, looked up: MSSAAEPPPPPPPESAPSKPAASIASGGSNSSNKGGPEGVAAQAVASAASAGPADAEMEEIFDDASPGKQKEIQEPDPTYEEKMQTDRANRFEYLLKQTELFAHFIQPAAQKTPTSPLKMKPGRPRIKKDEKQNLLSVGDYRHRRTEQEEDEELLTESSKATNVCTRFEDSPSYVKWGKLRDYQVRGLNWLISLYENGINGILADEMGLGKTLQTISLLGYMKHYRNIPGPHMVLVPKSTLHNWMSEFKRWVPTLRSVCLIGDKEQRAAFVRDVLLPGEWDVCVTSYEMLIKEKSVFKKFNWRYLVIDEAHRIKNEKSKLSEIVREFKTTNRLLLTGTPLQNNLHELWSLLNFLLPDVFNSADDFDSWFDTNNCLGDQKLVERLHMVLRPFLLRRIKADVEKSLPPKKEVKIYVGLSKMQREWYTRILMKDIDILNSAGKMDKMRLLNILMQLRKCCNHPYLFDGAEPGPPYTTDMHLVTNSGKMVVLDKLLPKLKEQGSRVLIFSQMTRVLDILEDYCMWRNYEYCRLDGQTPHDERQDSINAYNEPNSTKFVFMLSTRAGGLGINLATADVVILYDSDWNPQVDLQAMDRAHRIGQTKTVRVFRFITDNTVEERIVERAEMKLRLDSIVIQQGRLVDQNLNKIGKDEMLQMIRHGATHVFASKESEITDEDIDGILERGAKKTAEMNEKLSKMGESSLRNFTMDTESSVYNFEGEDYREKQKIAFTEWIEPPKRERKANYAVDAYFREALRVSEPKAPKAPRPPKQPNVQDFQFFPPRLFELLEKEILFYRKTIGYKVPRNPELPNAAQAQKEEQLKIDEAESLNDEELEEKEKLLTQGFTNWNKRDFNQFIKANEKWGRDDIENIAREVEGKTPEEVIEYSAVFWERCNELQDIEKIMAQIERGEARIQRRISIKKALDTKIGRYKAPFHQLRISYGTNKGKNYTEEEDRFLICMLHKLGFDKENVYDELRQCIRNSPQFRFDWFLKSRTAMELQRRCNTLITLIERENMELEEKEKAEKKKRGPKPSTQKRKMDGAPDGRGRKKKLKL
# UniProt Q8WWI5: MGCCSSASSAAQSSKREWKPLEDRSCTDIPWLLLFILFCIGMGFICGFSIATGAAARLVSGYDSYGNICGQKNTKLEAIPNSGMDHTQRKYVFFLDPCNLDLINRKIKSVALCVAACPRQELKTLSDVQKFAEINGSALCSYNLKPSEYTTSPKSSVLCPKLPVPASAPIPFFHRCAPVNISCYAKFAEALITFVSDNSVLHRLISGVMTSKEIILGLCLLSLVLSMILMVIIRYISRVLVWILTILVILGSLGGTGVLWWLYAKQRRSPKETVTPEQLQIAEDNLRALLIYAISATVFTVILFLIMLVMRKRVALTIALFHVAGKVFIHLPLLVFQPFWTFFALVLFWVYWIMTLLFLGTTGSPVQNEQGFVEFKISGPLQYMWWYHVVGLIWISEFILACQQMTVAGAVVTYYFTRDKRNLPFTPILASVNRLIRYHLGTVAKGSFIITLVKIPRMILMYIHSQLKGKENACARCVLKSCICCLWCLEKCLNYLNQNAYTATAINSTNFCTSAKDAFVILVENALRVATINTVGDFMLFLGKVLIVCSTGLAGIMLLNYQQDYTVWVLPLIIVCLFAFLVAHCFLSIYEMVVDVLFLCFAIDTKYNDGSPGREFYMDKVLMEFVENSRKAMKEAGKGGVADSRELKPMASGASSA
# UniProt Q13485: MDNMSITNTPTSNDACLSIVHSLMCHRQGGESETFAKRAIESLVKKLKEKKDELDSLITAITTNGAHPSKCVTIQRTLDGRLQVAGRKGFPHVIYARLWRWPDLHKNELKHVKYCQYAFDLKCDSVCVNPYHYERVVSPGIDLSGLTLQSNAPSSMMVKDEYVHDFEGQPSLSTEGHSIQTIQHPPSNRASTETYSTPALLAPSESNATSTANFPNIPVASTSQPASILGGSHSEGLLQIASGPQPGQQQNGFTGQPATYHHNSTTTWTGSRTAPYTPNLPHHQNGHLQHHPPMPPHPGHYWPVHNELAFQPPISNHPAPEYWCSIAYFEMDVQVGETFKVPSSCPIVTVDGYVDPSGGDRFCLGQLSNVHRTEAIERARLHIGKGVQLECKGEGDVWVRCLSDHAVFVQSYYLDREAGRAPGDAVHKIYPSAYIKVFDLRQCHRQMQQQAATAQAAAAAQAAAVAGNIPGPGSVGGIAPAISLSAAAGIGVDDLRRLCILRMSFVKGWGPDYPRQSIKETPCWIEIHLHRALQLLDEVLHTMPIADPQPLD
# UniProt Q9C0K1: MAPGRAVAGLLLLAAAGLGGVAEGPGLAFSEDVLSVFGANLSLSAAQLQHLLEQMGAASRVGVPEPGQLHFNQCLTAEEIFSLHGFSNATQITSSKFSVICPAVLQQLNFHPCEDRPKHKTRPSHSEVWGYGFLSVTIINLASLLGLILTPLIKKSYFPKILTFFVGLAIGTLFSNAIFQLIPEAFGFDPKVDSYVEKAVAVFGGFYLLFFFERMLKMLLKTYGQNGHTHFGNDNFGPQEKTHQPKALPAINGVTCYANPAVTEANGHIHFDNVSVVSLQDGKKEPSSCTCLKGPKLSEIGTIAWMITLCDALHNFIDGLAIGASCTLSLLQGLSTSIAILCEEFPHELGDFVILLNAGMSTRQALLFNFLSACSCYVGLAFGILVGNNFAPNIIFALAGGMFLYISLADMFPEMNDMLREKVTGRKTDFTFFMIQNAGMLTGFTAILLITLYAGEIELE
# UniProt Q96CW6: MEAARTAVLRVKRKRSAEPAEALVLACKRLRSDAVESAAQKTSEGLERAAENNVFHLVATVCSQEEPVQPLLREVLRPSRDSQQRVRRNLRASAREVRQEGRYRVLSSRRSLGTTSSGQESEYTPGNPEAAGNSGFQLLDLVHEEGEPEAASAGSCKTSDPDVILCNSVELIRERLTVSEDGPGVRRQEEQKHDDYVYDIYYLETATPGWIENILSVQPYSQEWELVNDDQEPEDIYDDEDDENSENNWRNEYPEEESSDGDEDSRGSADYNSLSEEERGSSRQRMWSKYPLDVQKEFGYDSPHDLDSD
# UniProt P51531, whole entry, looked up: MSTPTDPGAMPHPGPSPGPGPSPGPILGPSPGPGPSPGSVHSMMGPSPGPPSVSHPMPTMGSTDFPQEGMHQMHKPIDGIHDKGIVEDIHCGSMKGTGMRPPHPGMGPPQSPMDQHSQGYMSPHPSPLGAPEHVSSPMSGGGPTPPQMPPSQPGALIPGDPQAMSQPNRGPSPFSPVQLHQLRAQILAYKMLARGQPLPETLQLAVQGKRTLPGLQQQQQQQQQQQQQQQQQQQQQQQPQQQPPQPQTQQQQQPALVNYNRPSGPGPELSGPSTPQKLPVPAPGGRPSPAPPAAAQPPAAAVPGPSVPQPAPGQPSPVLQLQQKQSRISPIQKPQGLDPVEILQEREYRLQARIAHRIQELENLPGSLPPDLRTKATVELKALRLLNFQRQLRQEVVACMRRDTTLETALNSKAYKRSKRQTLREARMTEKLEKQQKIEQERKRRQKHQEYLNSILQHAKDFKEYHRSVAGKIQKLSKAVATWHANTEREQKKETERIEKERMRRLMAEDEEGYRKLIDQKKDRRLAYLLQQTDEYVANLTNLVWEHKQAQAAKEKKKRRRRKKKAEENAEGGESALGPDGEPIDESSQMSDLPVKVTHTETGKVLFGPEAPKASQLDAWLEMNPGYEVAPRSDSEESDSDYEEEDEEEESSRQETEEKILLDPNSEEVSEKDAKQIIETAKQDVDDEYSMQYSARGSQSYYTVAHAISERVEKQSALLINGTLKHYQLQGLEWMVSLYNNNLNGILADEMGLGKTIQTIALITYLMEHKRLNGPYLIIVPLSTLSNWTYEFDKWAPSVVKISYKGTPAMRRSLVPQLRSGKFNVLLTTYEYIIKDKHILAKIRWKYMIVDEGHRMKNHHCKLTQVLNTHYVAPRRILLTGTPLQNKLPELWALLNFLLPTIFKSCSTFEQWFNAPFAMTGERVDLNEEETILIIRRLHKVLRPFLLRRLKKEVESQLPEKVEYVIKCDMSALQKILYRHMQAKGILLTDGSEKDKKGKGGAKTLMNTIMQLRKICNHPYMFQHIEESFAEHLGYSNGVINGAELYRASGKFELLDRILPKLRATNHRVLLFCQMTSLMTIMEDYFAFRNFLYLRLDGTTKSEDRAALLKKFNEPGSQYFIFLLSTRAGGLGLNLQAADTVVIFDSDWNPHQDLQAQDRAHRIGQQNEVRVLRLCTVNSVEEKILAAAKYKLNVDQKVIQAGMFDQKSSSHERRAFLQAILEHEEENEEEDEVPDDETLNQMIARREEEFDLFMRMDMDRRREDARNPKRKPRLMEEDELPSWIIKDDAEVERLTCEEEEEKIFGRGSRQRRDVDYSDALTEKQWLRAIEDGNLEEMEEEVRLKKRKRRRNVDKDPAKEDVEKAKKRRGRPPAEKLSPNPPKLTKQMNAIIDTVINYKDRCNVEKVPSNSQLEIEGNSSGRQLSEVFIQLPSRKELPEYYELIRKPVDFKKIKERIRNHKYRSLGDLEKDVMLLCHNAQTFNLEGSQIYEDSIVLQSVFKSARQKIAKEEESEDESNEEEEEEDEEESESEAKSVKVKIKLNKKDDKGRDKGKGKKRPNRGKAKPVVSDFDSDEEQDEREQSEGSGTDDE
# UniProt Q96DI7: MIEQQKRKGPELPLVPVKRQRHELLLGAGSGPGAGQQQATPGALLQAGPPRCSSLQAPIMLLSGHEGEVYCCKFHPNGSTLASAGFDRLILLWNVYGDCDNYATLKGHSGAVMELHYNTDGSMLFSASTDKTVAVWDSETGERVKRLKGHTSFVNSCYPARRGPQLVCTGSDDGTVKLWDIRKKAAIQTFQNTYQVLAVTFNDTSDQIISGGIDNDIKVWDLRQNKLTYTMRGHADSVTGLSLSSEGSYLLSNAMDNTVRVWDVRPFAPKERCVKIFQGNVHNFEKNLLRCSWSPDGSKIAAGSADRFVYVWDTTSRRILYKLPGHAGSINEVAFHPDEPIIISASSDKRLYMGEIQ
# Compound: CC1Cc2ccccc2N1C(=O)C1CCCN(C1)C(=O)CCl (mixture of isomers) [TRIM25 ligand 11 (diastereomer mixture)]
# Assay: probe-labelled cysteine peptide fold change vs DMSO (competition) (log2 fold change); higher = less target engagement (more negative = stronger competition)
# Settings: THP-1, incubation time: 4 h
# 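Note: competitive chemoproteomic profiling in live THP-1 cells with an iodoacetamide desthiobiotin (IA-DTB) probe, comparing probe-labelled peptide intensities in compound-treated cells against DMSO-treated controls.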
Target,probe-labelled cysteine peptide fold change (10 µM),probe-labelled cysteine peptide fold change (50 µM)
SLFN11_Q7Z7L1_126_LCSLSSSLYR (UniProt Q7Z7L1),-0.127,-0.0677
SNRNP200_O75643_588_EEISATQIIVCTPEK (UniProt O75643),0.232,0.241
SNRNP200_O75643_576_LATYGITVAELTGDHQLCK (UniProt O75643),0.114,0.107
SMN2_Q16637_107_CSAIWSEDGCIYPATIASIDFKR (UniProt Q16637),-0.144,-0.263
SLMAP_Q14BN4_673_EWNALETECHSLK (UniProt Q14BN4),0.25,0.175
SNRNP200_O75643_1127_MWQSMCPLR (UniProt O75643),0.097,-0.0364
SMC4_Q9NTJ3_158_DIQSCTVEVHFQK (UniProt Q9NTJ3),0.131,0.23
SLC27A3_Q5K4L6_256_RGPLLHCLR (UniProt Q5K4L6),-0.11,-0.0358
SMCHD1_A6NHR9_1445_DNDKEDGCFYFR (UniProt A6NHR9),-0.0116,0.0208
SMARCA5_O60264_457_CCNHPYLFDGAEPGPPYTTDMHLVTNSGK (UniProt O60264),0.0517,0.132
SMC6_Q96SB8_58_NFMCHSMLGPFK (UniProt Q96SB8),-0.116,-0.00986
SMC5_Q8IY18_393_TTENCENLQPQIDAITNDLRR (UniProt Q8IY18),-0.0378,-0.0267
SLC44A1_Q8WWI5_98_YVFFLDPCNLDLINRK (UniProt Q8WWI5),0.122,-0.0836
SLC44A1_Q8WWI5_113_SVALCVAACPR (UniProt Q8WWI5),0.0704,-0.0751
SMPD2_O60906_188_KADVVLLCGDLNMHPEDLGCCLLK (UniProt O60906),0.0765,-0.00132
SMCHD1_A6NHR9_1967_CNDSLR (UniProt A6NHR9),-0.121,-0.161
SMAD4_Q13485_123+127_CDSVCVNPYHYER (UniProt Q13485),0.0654,0.0144
SND1_Q7KZF4_837_DIQNTQCLLNVEHLSAGCPHVTLQFADSK (UniProt Q7KZF4),0.203,-0.214
SLC39A8_Q9C0K1_113_FSVICPAVLQQLNFHPCEDRPK (UniProt Q9C0K1),0.0446,-0.0492
SMAD4_Q13485_115_YCQYAFDLK (UniProt Q13485),-0.0473,-0.0401
SLC4A2_P04920_1215_CLDANEAEPVFDER (UniProt P04920),0.297,-0.0524

# Some of the entries so far, tab-delimited:
Target	probe-labelled cysteine peptide fold change (10 µM)	probe-labelled cysteine peptide fold change (50 µM)
SNRNP200_O75643_588_EEISATQIIVCTPEK (UniProt O75643)	0.232	0.241
SNRNP200_O75643_1127_MWQSMCPLR (UniProt O75643)	0.097	-0.0364
SMC4_Q9NTJ3_158_DIQSCTVEVHFQK (UniProt Q9NTJ3)	0.131	0.23
SMARCA5_O60264_457_CCNHPYLFDGAEPGPPYTTDMHLVTNSGK (UniProt O60264)	0.0517	0.132
SMAD4_Q13485_123+127_CDSVCVNPYHYER (UniProt Q13485)	0.0654	0.0144

# (list continues)

Target,probe-labelled cysteine peptide fold change (10 µM),probe-labelled cysteine peptide fold change (50 µM)
SNRNP200_O75643_1278_WLSCETQLPVSFR (UniProt O75643),0.233,0.199
SLC7A6OS_Q96CW6_62_AAENNVFHLVATVCSQEEPVQPLLR (UniProt Q96CW6),-0.0977,-0.671
SNRNP200_O75643_1706_CVIMCQGSK (UniProt O75643),0.0537,0.0778
SMAD3_P84022_394_QTVTSTPCWIELHLNGPLQWLDK (UniProt P84022),-0.159,-0.000492
SLC4A7_Q9Y6M7_120_VQFILGTEDDDEEHIPHDLFTEMDELCYR (UniProt Q9Y6M7),0.222,-0.577
SLITRK4_Q8IW52_661_HEGLGNPDCGSMQLQLR (UniProt Q8IW52),0.167,-0.0988
SLC4A1AP_Q9BWU0_125_EGPTALQDSNSGEPDIPPPQPDCGDFR (UniProt Q9BWU0),-0.107,-0.294
SMARCA2_P51531_1296_LMEEDELPSWIIKDDAEVERLTCEEEEEK (UniProt P51531),-0.248,-0.36
SMC1A_Q14683_781_MNQVEDEVFEEFCR (UniProt Q14683),0.0344,0.0302
SNRNP200_O75643_428_CQLPDGSFR (UniProt O75643),-0.074,-0.195
SLC7A6OS_Q96CW6_166_TSDPDVILCNSVELIR (UniProt Q96CW6),-0.174,-0.354
SMC3_Q9UQE7_1134_CDPAPFYLFDEIDQALDAQHR (UniProt Q9UQE7),0.315,0.0388
SMN2_Q16637_60_NGDICETSGKPK (UniProt Q16637),-0.146,-0.16
SMCHD1_A6NHR9_970_LIVHCK (UniProt A6NHR9),-0.0836,0.11
SLFN11_Q7Z7L1_150_EAFCFLK (UniProt Q7Z7L1),-0.0249,-0.268
SMAP2_Q8WU79_80_SVNLDQWTQEQIQCMQEMGNGK (UniProt Q8WU79),0.0063,0.00761
SMAD4_Q13485_401_CLSDHAVFVQSYYLDR (UniProt Q13485),0.181,-0.0744
SLFN13_Q68D06_487_EQDAEGQDYCTR (UniProt Q68D06),0.0571,0.0597
SMCHD1_A6NHR9_505_GLAPIECYNR (UniProt A6NHR9),0.0869,0.0307
SND1_Q7KZF4_268_DVQIILESCHNQNILGTILHPNGNITELLLK (UniProt Q7KZF4),0.125,-0.0599
SMARCAD1_Q9H4L7_861_VLGCILSELK (UniProt Q9H4L7),-0.0385,0.0896

Target,probe-labelled cysteine peptide fold change (10 µM),probe-labelled cysteine peptide fold change (50 µM)
SMG5_Q9UPR3_109_STLECAYR (UniProt Q9UPR3),0.24,0.132
SLC7A1_P30825_628_TPDGNLDQCK (UniProt P30825),-0.151,-0.138
SNRNP200_O75643_742_DMCLEK (UniProt O75643),0.0208,0.0779
SNRNP200_O75643_1702_CVIMCQGSKK (UniProt O75643),-0.266,-0.313
SMCHD1_A6NHR9_444_YHPFLYDRETYPDDPCFPSK (UniProt A6NHR9),-0.0194,-0.197
SMC4_Q9NTJ3_916_QLDECASAITK (UniProt Q9NTJ3),-0.00623,0.133
SMAD4_Q13485_523_ETPCWIEIHLHR (UniProt Q13485),-0.0594,-0.00398
SMURF2_Q9HAU4_627_ELELIICGLGK (UniProt Q9HAU4),0.0245,0.062
SMYD3_Q9H7B4_263_QLRDQYCFECDCFR (UniProt Q9H7B4),-0.0377,-0.0451
SMU1_Q2TAY7_312_GVTCLSFSK (UniProt Q2TAY7),0.0362,0.219
SMC1A_Q14683_523_LIDLCQPTQK (UniProt Q14683),-0.0272,-0.0144
SMPD1_P17405_229_ILFLTDLHWDHDYLEGTDPDCADPLCCR (UniProt P17405),0.202,0.182
SLC9A3R1_O14745_15_LCCLEK (UniProt O14745),-0.0798,-0.136
SNRNP200_O75643_1592_FLHCTEK (UniProt O75643),0.133,0.0176
SMAD5_Q99717_378_IPSSCSLK (UniProt Q99717),-0.0851,0.000243
SLFN11_Q7Z7L1_51_AACALLNSGGGVIR (UniProt Q7Z7L1),0.0734,0.0456
SLC39A14_Q15043_290_LQNGDLDHMIPQHCSSELDGK (UniProt Q15043),0.116,-0.277
SMCHD1_A6NHR9_985_FSGAPNLPVYVVDCSSSGTSILTGSAIQVQNIKK (UniProt A6NHR9),-0.176,-0.146
SNRNP40_Q96DI7_168_RGPQLVCTGSDDGTVK (UniProt Q96DI7),-0.162,-0.0415
SLC39A8_Q9C0K1_101_FSVICPAVLQQLNFHPCEDRPK (UniProt Q9C0K1),-0.108,0.105
SMG5_Q9UPR3_39_LDLILCNK (UniProt Q9UPR3),0.355,0.485

Target,probe-labelled cysteine peptide fold change (10 µM),probe-labelled cysteine peptide fold change (50 µM)
SNRNP40_Q96DI7_72_CSSLQAPIMLLSGHEGEVYCCK (UniProt Q96DI7),0.165,0.0428
SLMAP_Q14BN4_286_SLSNTEDECTHLK (UniProt Q14BN4),-0.00489,-0.0566
SMARCC1_Q92922_462_SVDLGEDNVTEQTNHIIIPSYASWFDYNCIHVIER (UniProt Q92922),-0.234,-0.397
SLK_Q9H2G2_993_AELANIERECLNNK (UniProt Q9H2G2),-0.123,-0.0676
SLC30A1_Q9Y6M5_433_SSVVPCELACR (UniProt Q9Y6M5),0.0126,-0.123
SMARCA5_O60264_1001_CNTLITLIER (UniProt O60264),-0.0569,0.22
SMCHD1_A6NHR9_474_GKRPIFECFWNGR (UniProt A6NHR9),-0.236,-0.171
SMARCB1_Q12824_147_NSQWVPTLPNSSHHLDAVPCSTTINR (UniProt Q12824),-0.0549,-0.612
SNRNP200_O75643_2011_FCNRYPNIELSYEVVDK (UniProt O75643),-0.0643,-0.0103
SMARCC1_Q92922_761_VDPTYGLESSCIAGTGPDEPEK (UniProt Q92922),0.3,0.107
SMC3_Q9UQE7_972_KLEQCNTELK (UniProt Q9UQE7),-0.0501,-0.026
SMYD5_Q6GMV2_136_LAATEQYHQVLCPGPSQDDPLHPLNK (UniProt Q6GMV2),0.0782,0.106
SMS_P52788_337_LYCPVEFSK (UniProt P52788),0.0474,0.0296
SLC27A3_Q5K4L6_112_ALAAAAADPEGPEGGCSLAWR (UniProt Q5K4L6),-0.0867,-0.00676
SMC3_Q9UQE7_650_AFTMDCITLEGDQVSHR (UniProt Q9UQE7),0.0437,0.0692
SMCHD1_A6NHR9_474_RPIFECFWNGR (UniProt A6NHR9),-0.00857,0.0994
SMARCA2_P51531_91_GIVEDIHCGSMK (UniProt P51531),-0.022,-0.253
SMC3_Q9UQE7_1134_CDPAPFYLFDEIDQALDAQHRK (UniProt Q9UQE7),-0.044,0.191
